According to patent publication US6913892:
No constants are given. Whether binding was seen depends on the method and setting. Some entries that bind do so weakly or less than the wild type.

Chains of the proteins cited; added tags and fusions are not shown. Lines headed by an entry give the natural chain unless they say otherwise; changes in a name come on top. Residues count along the entry.
UniProt P0DQD5: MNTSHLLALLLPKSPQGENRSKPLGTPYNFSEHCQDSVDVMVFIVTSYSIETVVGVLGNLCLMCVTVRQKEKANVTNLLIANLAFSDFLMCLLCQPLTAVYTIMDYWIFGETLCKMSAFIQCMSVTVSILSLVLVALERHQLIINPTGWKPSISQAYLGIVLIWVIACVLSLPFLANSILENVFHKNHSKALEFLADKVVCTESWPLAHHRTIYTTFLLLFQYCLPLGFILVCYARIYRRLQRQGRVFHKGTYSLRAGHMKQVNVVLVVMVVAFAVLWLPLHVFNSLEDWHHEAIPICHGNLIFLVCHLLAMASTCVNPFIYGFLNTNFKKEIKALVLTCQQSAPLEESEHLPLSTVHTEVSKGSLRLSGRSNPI
UniProt P10082, residues 31-64: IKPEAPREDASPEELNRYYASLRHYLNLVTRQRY

Target: human Y4 receptor (human) (UniProt P0DQD5)
Test: 125I-PYY displacement, COS-7 membranes

binding: binds
Substance: PYY3-36, human (from UniProt P10082 31-64) (peptide)
